Results as given in patent US20060135365A1, “Wood chip capsule for fertilizer, agriculture pesticides and plant growth regulator, process and apparatus for producing the same” (priority 2002, published 2006).

Assay: Ingredients quantitative analysis of Pinus densiflora wood chips soaked one week in saturated reagent solutions
Format: physicochemical
[1] = Pinus densiflora chip 30x25x5 mm, soaked one week in saturated solution, Kjeldahl
[2] = Pinus densiflora chip, soaked one week in saturated solution
[3] = Pinus densiflora chip, soaked one week
[4] = Pinus densiflora chip, soaked one week, Vanadate method
[5] = Pinus densiflora chip, soaked one week, atomic absorption or pH-meter

SMILES: N.N.O=S(=O)(O)O [(NH4)2SO4]
- Nitrogen ppm [1]: 107,240 ppm
- Nitrogen content(%) [2]: 10.7%

SMILES: O=P([O-])(O)O.[K+] [KH2PO4]
- Phosphorous content(%) [3]: 1.5%
- Phosphorous ppm [4]: 149 ppm

SMILES: N.O=P(O)(O)O [NH4H2PO4]
- Nitrogen ppm [1]: 68,600 ppm
- Phosphorous content(%) [3]: 1.5%
- Nitrogen content(%) [2]: 6.9%
- Phosphorous ppm [4]: 152 ppm

SMILES: O=P([O-])([O-])[O-].[K+].[K+].[K+] [K3P04]
- Phosphorous content(%) [3]: 1.3%
- Phosphorous ppm [4]: 129 ppm

SMILES: O=P(O)(O)O [K2HPO4, Potassium phosphate]
- Phosphorous content(%): 2.1%
- Phosphorous ppm: 206 ppm

SMILES: O.O.O=P([O-])(O)O.[Na+] [NaH2PO4.2H2O]
- Phosphorous content(%) [3]: 1.8%
- Phosphorous ppm [4]: 183 ppm

SMILES: O=N[O-].[Na+] [NaNO2]
- Nitrogen content(%): 5.6%
- Nitrogen ppm: 55,720 ppm

SMILES: O=[N+]([O-])[O-].[K+] [KNO3]
- Nitrogen ppm [1]: 51,520 ppm
- Potassium content(%) [3]: 6.5%
- Nitrogen content(%) [2]: 5.2%
- Potassium ppm [5]: 652 ppm

SMILES: [Cl-].[K+] [KCl, potassium chloride]
- Potassium content(%): 8.6%
- Potassium ppm: 862 ppm

SMILES: O=S(=O)([O-])[O-].[K+].[K+] [K2SO4]
- Potassium content(%) [3]: 3.0%
- Potassium ppm [5]: 304 ppm

Where two headings read alike, the source gives them in different places.
